These are yes or no findings as the source states them, for the method shown. Some entries that bind do so weakly or less than the wild type. Sequences can lack the tags named with a protein.
Legend:
Assay in all cases: SPR; competition: extracellular portions of BMP receptors (Fc fusions) immobilised; BMP2 or BMP6 as analyte alone or mixed with bacterial WT or W82A ERFE N-terminal segment; both purified
Activin RIA/ALK2-Fc = molecular target: T1, Activin RIA/ALK2-Fc (UniProt Q04771)
T1 sequence: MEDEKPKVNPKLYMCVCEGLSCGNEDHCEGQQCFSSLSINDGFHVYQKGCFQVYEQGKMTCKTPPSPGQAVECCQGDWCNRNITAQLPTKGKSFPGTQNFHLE

Sequences of proteins named here, by UniProt entry; tags and fusion partners are left off. Residues count along the entry.
UniProt P22004, residues 375-513: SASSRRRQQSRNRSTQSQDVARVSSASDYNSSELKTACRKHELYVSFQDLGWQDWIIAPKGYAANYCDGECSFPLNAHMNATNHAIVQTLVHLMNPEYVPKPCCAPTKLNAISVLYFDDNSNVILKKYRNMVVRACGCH

Activin RIIB-Fc = molecular target: T2, Activin RIIB-Fc (UniProt Q13705)
T2 sequence: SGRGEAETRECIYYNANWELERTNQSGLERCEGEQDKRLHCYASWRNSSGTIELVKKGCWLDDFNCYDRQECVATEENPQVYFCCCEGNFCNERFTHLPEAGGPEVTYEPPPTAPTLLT

BMPRII-Fc = molecular target: T3, BMPRII-Fc (UniProt Q13873)
T3 sequence: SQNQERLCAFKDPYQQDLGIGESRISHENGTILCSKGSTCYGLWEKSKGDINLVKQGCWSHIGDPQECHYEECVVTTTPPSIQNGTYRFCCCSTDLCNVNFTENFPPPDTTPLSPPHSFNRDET

Measured: binding

BMP6 homodimer (from UniProt P22004 375-513) (ligand)
binds: all assays above
